From patent US6413730
These are yes or no findings as the source states them, for the method shown. In cells and extracts the contact can be indirect. Some binding calls cover weakened binding; strength is not graded here. Where a sequence is shown, tags or fusion partners need not be part of it.

How the values were obtained:
[1] = molecular target: T1, human Elk-L (hElk-L), full length (human) (UniProt P98172); test: pull-down from Cos-1 lysates with Nuk-Fc plus protein A sepharose, anti-phosphotyrosine blot
T1 sequence (tyrosine phosphorylated in some experiments (sites not mapped), looked up): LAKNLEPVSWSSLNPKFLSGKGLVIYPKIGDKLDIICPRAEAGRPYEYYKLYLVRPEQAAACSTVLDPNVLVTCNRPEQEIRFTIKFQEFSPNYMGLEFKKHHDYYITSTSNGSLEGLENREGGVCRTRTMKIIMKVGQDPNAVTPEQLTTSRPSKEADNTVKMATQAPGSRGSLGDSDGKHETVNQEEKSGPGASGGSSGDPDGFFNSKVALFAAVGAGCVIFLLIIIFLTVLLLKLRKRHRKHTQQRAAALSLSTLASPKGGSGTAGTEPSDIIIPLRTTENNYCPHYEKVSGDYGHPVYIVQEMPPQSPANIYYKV

[2] = molecular target: T1, human Elk-L (hElk-L), full length (human); test: pull-down from Cos-1 lysates with 10 µg Nuk-Fc plus protein A sepharose, anti-phosphotyrosine blot

B1: Nuk extracellular domain IgG fusion protein (Nuk-Fc) (Fc fusion, UniProt P54763 19-543, looked up, not shown: a dimerising Fc or GST)
chain: VEETLMDSTTATAELGWMVHPPSGWEEVSGYDENMNTIRTYQVCNVFESSQNNWLRTKFIRRRGAHRIHVEMKFSVRDCSSIPSVPGSCKETFNLYYYEADFDLATKTFPNWMENPWVKVDTIAADESFSQVDLGGRVMKINTEVRSFGPVSRNGFYLAFQDYGGCMSLIAVRVFYRKCPRIIQNGAIFQETLSGAESTSLVAARGSCIANAEEVDVPIKLYCNGDGEWLVPIGRCMCKAGFEAVENGTVCRGCPSGTFKANQGDEACTHCPINSRTTSEGATNCVCRNGYYRADLDPLDMPCTTIPSAPQAVISSVNETSLMLEWTPPRDSGGREDLVYNIICKSCGSGRGACTRCGDNVQYAPRQLGLTEPRIYISDLLAHTQYTFEIQAVNGVTDQSPFSPQFASVNITTNQAAPSAVSIMHQVSRTVDSITLSWSQPDQPNGVILDYELQYYEKELSEYNATAIKSPTNTVTVQGLKAGAIYVFQVRARTVAGYGRYSGKMYFQTMTEAEYQTSIKEKLPL
- binding [1]: binds
- binding [2]: binds
